Source: US20090247646A1, “USE OF RESVERATROL AND DERIVATIVES THEREOF FOR PROMOTING THE WELLNESS STATE IN MAMMALS” (priority 2006, published 2009)
Further values from the same series stand in other lists.

Tested on: gene expression in heart tissue
Test: Genome-wide gene expression in heart tissue of old mice fed a resveratrol-supplemented diet (Affymetrix Mouse Genome 430 2.0 array)
Assay type: in vivo

## Oc1ccc(/C=C/c2cc(O)cc(O)c2)cc1 [resveratrol, 3,4′,5-Trihydroxy-trans-stilbene]
1424359_at Mus musculus transcribed sequence with weak similarity to protein ref: NP_061137.1 (H. sapiens) sphingomyelin phosphodiesterase 3, neutral membrane (neutral sphingomyelinase II) [Homo sapiens]
  Effect of resveratrol on changeing gene expression from old to young profile: >100%
1424389_at nucleoporin like 1
  Effect of resveratrol on changeing gene expression from old to young profile: >100%
1424538_at ubiquitin-like 4
  Effect of resveratrol on changeing gene expression from old to young profile: >100%
1424622_at heat shock factor 1
  Effect of resveratrol on changeing gene expression from old to young profile: >100%
1424648_at RAB, member of RAS oncogene family-like 4
  Effect of resveratrol on changeing gene expression from old to young profile: 70-80%
1424669_at zinc finger, FYVE domain containing 21
  Effect of resveratrol on changeing gene expression from old to young profile: >100%
1424671_at pleckstrin homology domain containing, family F (with FYVE domain) member 1
  Effect of resveratrol on changeing gene expression from old to young profile: 60-70%
1424736_at eukaryotic translation elongation factor 2
  Effect of resveratrol on changeing gene expression from old to young profile: >100%
1424776_a_at solute carrier family 25, member 28
  Effect of resveratrol on changeing gene expression from old to young profile: >100%
1425097_a_at zinc finger protein 106
  Effect of resveratrol on changeing gene expression from old to young profile: <60%
1425140_at lactamase, beta 2
  Effect of resveratrol on changeing gene expression from old to young profile: 70-80%
1425158_at T-box 20
  Effect of resveratrol on changeing gene expression from old to young profile: 60-70%
1425196_a_at histidine triad nucleotide binding protein 2
  Effect of resveratrol on changeing gene expression from old to young profile: >100%
1425280_at transmembrane channel-like gene family 4
  Effect of resveratrol on changeing gene expression from old to young profile: >100%
1425341_at potassium channel, subfamily K, member 3
  Effect of resveratrol on changeing gene expression from old to young profile: >100%
1425533_a_at staufen (RNA binding protein) homolog 2 (Drosophila)
  Effect of resveratrol on changeing gene expression from old to young profile: <60%
1425542_a_at protein phosphatase 2, regulatory subunit B (B56), gamma isoform
  Effect of resveratrol on changeing gene expression from old to young profile: 90-100%
1425631_at protein phosphatase 1, regulatory (inhibitor) subunit 3C
  Effect of resveratrol on changeing gene expression from old to young profile: 70-80%
1425702_a_at ectonucleotide pyrophosphatase/phosphodiesterase 5
  Effect of resveratrol on changeing gene expression from old to young profile: >100%
1425745_a_at transforming, acidic coiled-coil containing protein 2
  Effect of resveratrol on changeing gene expression from old to young profile: >100%
1425927_a_at activating transcription factor 5
  Effect of resveratrol on changeing gene expression from old to young profile: >100%
1425929_a_at ring finger protein 14
  Effect of resveratrol on changeing gene expression from old to young profile: 70-80%
1425956_a_at cytidine and dCMP deaminase domain containing 1
  Effect of resveratrol on changeing gene expression from old to young profile: >100%
1426066_a_at dystrobrevin alpha
  Effect of resveratrol on changeing gene expression from old to young profile: <60%
1426313_at brain and reproductive organ-expressed protein
  Effect of resveratrol on changeing gene expression from old to young profile: 70-80%
1426353_at signal transducer and activator of transcription 6
  Effect of resveratrol on changeing gene expression from old to young profile: >100%
1426382_at protein phosphatase 1B, magnesium dependent, beta isoform
  Effect of resveratrol on changeing gene expression from old to young profile: 60-70%
1426403_at ARP1 actin-related protein 1 homolog B (yeast)
  Effect of resveratrol on changeing gene expression from old to young profile: >100%
1426465_at discs, large homolog-associated protein 4 (Drosophila)
  Effect of resveratrol on changeing gene expression from old to young profile: >100%
1426486_at UBX domain containing 2
  Effect of resveratrol on changeing gene expression from old to young profile: >100%
1426519_at procollagen-proline, 2-oxoglutarate 4-dioxygenase (proline 4-hydroxylase), alpha 1 polypeptide
  Effect of resveratrol on changeing gene expression from old to young profile: <60%
1426731_at desmin
  Effect of resveratrol on changeing gene expression from old to young profile: >100%
1426824_at proteasome (prosome, macropain) activator subunit 4
  Effect of resveratrol on changeing gene expression from old to young profile: 70-80%
1426837_at methionyl aminopeptidase 1
  Effect of resveratrol on changeing gene expression from old to young profile: 80-90%
1426983_at formin binding protein 1
  Effect of resveratrol on changeing gene expression from old to young profile: 80-90%
1427039_at epsin 1
  Effect of resveratrol on changeing gene expression from old to young profile: >100%
1427052_at acetyl-Coenzyme A carboxylase beta
  Effect of resveratrol on changeing gene expression from old to young profile: >100%
1427079_at microtubule-associated protein, RP/EB family, member 3
  Effect of resveratrol on changeing gene expression from old to young profile: >100%
1427165_at interleukin 13 receptor, alpha 1
  Effect of resveratrol on changeing gene expression from old to young profile: 80-90%
1427432_a_at Mus musculus transcribed sequences
  Effect of resveratrol on changeing gene expression from old to young profile: >100%
1427490_at ATP-binding cassette, sub-family B (MDR/TAP), member 7
  Effect of resveratrol on changeing gene expression from old to young profile: 80-90%
1427548_a_at chloride channel, nucleotide-sensitive, 1A
  Effect of resveratrol on changeing gene expression from old to young profile: 60-70%
1427610_at desmoplakin
  Effect of resveratrol on changeing gene expression from old to young profile: <60%
1427902_at serine/arginine repetitive matrix 2
  Effect of resveratrol on changeing gene expression from old to young profile: 70-80%
1428021_at methylcrotonoyl-Coenzyme A carboxylase 2 (beta)
  Effect of resveratrol on changeing gene expression from old to young profile: 60-70%
1428061_at histidine aminotransferase 1
  Effect of resveratrol on changeing gene expression from old to young profile: 80-90%
1428295_at synaptopodin 2-like
  Effect of resveratrol on changeing gene expression from old to young profile: 90-100%
1428367_at N-deacetylase/N-sulfotransferase (heparan glucosaminyl) 1
  Effect of resveratrol on changeing gene expression from old to young profile: 90-100%
1428372_at suppression of tumorigenicity 5
  Effect of resveratrol on changeing gene expression from old to young profile: 90-100%
1428382_at Mus musculus transcribed sequence with moderate similarity to protein ref: NP_033237.1 (M. musculus) SWI/SNF related, matrix associated, actin dependent regulator of chromatin, subfamily c, member . . .
  Effect of resveratrol on changeing gene expression from old to young profile: >100%
1428454_at breast carcinoma amplified sequence 3
  Effect of resveratrol on changeing gene expression from old to young profile: >100%
1428471_at sorbin and SH3 domain containing 1
  Effect of resveratrol on changeing gene expression from old to young profile: 90-100%
1428563_at DEAD (Asp-Glu-Ala-Asp) box polypeptide 10
  Effect of resveratrol on changeing gene expression from old to young profile: >100%
1428587_at DNA segment, Chr 7, ERATO Doi 743, expressed
  Effect of resveratrol on changeing gene expression from old to young profile: 80-90%
1428645_at guanine nucleotide binding protein, alpha inhibiting 3
  Effect of resveratrol on changeing gene expression from old to young profile: 90-100%
1428892_at Mus musculus transcribed sequences
  Effect of resveratrol on changeing gene expression from old to young profile: >100%
1429139_at zinc finger, A20 domain containing 1
  Effect of resveratrol on changeing gene expression from old to young profile: >100%
1429201_at cylindromatosis (turban tumor syndrome)
  Effect of resveratrol on changeing gene expression from old to young profile: >100%
1429348_at sema domain, immunoglobulin domain (Ig), short basic domain, secreted, (semaphorin) 3C
  Effect of resveratrol on changeing gene expression from old to young profile: >100%
1429533_at inner membrane protein, mitochondrial
  Effect of resveratrol on changeing gene expression from old to young profile: <60%
1429830_a_at CD59a antigen
  Effect of resveratrol on changeing gene expression from old to young profile: 80-90%
